Experimental data taken from publication doi:10.1101/2020.05.05.079970.
These are yes or no findings as the source states them, for the method shown. Binding seen in cells or lysates may run through a third protein. Some results given as binding are weak or reduced against the parent protein; the word gives no strength.

Protein sequences, listed by entry. Tags and fused reporters are not part of them. Lines headed by an entry give the natural chain unless they say otherwise; changes in a name come on top. Chains listed by the source or under a name are the forms on record and can include a tag or linker.
UniProt Q96CW1: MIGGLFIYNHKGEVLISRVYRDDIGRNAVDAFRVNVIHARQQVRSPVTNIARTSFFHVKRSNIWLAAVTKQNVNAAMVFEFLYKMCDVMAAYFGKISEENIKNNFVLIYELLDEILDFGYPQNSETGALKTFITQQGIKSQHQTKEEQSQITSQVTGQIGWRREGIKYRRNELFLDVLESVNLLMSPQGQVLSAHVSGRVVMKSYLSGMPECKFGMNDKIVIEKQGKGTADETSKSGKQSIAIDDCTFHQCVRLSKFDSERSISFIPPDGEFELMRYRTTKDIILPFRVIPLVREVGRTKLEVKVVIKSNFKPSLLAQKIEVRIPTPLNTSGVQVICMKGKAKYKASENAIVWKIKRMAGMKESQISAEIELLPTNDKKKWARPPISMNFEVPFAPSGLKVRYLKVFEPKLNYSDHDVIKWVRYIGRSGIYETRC
UniProt O15027: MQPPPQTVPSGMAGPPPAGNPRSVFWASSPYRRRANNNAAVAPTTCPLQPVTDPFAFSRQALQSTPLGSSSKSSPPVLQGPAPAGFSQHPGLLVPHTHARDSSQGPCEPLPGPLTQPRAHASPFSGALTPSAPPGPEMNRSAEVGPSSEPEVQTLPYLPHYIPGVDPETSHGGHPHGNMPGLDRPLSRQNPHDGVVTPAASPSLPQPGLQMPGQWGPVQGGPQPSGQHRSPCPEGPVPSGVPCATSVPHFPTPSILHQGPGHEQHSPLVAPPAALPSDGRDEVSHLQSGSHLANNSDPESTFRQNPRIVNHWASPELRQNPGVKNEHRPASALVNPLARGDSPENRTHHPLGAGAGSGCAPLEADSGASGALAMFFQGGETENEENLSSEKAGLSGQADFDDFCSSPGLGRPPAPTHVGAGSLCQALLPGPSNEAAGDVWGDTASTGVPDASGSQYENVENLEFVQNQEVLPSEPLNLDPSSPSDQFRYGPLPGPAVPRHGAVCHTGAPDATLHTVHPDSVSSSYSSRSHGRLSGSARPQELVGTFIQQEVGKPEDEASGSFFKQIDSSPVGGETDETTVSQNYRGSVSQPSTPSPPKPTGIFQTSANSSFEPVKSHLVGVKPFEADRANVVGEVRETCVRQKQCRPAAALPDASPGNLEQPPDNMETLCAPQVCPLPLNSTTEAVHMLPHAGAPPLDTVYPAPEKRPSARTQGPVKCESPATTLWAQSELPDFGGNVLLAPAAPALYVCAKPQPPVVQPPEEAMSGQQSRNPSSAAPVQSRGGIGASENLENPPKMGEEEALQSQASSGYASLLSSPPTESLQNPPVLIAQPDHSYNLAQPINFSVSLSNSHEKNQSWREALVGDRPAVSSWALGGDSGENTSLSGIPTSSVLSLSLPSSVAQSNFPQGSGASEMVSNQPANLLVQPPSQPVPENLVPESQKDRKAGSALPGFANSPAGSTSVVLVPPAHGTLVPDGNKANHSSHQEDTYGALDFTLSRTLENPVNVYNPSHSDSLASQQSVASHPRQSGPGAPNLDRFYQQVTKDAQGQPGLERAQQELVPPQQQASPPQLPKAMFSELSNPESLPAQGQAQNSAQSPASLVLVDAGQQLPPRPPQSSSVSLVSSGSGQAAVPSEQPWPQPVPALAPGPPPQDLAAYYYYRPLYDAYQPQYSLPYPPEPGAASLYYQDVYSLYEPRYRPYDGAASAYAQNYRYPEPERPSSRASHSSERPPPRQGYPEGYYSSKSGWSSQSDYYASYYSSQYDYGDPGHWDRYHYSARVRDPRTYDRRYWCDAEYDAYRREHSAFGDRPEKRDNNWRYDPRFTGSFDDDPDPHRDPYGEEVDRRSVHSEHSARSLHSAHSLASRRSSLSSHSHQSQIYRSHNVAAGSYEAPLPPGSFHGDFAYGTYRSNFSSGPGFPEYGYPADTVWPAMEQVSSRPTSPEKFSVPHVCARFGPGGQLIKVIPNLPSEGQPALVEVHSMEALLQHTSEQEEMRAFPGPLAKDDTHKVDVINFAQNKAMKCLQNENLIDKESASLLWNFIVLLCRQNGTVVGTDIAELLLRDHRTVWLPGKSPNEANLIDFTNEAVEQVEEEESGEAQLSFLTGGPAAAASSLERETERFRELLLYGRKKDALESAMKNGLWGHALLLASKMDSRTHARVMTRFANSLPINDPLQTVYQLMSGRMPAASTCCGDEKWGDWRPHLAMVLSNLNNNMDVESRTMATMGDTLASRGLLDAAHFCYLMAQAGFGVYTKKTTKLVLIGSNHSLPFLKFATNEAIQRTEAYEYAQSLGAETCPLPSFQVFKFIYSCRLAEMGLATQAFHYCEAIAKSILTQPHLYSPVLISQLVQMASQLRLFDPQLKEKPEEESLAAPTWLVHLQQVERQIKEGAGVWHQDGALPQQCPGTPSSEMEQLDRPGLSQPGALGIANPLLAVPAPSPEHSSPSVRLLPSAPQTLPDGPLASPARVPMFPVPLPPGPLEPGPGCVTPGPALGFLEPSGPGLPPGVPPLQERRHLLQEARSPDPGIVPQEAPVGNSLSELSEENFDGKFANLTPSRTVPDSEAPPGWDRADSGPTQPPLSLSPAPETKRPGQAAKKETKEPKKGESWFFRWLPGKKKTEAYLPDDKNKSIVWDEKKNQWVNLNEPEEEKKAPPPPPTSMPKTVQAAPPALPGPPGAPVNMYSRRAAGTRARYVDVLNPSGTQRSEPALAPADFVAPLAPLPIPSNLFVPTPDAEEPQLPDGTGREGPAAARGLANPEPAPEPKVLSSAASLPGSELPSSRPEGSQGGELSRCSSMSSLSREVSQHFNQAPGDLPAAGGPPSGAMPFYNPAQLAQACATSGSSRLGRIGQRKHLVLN
UniProt Q9NSY1: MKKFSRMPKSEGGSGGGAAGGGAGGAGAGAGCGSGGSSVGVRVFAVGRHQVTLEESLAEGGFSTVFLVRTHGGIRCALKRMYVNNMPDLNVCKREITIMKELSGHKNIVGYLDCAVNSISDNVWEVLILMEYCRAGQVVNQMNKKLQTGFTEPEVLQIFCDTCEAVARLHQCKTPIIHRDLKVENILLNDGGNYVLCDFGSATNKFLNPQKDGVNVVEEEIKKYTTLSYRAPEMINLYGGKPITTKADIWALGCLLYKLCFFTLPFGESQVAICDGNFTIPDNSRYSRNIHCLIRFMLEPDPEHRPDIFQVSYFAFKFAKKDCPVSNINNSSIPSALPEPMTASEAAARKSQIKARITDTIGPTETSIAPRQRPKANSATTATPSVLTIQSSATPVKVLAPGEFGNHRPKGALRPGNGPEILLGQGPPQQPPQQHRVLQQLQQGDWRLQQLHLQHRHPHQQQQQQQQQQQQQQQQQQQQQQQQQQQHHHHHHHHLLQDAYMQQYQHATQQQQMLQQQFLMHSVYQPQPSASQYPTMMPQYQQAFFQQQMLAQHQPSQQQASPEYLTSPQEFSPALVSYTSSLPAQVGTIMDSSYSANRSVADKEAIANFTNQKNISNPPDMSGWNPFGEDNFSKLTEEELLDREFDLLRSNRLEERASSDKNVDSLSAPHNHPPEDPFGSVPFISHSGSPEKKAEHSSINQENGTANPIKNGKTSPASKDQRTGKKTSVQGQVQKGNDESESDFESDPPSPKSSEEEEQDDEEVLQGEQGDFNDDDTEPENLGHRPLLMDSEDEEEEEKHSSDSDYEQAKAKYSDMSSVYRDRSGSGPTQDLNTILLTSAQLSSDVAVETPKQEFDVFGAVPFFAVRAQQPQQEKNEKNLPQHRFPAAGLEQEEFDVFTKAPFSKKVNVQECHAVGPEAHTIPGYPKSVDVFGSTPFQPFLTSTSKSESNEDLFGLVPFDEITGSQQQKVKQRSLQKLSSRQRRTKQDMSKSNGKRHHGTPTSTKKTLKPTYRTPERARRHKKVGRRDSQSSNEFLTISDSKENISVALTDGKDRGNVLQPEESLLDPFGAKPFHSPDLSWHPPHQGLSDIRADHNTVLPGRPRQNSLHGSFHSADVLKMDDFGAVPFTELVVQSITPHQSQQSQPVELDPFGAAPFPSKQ
BMP2K-S, untagged, ectopically expressed in HEK293 cells (pcDNA3.1-BMP2K-S) (Q9NSY1-2, form named): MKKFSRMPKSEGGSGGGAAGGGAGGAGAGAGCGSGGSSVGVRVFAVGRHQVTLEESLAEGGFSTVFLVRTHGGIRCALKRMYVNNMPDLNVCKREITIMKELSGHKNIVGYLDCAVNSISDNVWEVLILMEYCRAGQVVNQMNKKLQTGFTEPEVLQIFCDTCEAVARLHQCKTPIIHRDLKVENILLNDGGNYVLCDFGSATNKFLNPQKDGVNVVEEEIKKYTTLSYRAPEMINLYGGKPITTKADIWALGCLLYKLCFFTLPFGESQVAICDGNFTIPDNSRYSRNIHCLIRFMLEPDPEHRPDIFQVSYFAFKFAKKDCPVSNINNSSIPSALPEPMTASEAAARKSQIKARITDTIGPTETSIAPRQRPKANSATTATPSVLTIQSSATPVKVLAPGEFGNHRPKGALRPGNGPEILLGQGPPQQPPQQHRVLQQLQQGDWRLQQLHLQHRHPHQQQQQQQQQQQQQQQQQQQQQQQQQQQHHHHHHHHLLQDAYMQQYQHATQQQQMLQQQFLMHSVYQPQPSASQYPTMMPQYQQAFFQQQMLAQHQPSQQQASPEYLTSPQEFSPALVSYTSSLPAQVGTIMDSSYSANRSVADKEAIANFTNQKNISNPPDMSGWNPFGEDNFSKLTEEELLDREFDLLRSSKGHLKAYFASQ

Key:
Assay in all cases: co-IP
[1] = target: Thr156-phosphorylated μ2 adaptin of the AP-2 complex (endogenous, K562) (human (endogenous in K562)) (UniProt Q96CW1)
[2] = target: T1, SEC24B (endogenous, K562) (human (endogenous in K562)) (UniProt O95487)
T1 sequence: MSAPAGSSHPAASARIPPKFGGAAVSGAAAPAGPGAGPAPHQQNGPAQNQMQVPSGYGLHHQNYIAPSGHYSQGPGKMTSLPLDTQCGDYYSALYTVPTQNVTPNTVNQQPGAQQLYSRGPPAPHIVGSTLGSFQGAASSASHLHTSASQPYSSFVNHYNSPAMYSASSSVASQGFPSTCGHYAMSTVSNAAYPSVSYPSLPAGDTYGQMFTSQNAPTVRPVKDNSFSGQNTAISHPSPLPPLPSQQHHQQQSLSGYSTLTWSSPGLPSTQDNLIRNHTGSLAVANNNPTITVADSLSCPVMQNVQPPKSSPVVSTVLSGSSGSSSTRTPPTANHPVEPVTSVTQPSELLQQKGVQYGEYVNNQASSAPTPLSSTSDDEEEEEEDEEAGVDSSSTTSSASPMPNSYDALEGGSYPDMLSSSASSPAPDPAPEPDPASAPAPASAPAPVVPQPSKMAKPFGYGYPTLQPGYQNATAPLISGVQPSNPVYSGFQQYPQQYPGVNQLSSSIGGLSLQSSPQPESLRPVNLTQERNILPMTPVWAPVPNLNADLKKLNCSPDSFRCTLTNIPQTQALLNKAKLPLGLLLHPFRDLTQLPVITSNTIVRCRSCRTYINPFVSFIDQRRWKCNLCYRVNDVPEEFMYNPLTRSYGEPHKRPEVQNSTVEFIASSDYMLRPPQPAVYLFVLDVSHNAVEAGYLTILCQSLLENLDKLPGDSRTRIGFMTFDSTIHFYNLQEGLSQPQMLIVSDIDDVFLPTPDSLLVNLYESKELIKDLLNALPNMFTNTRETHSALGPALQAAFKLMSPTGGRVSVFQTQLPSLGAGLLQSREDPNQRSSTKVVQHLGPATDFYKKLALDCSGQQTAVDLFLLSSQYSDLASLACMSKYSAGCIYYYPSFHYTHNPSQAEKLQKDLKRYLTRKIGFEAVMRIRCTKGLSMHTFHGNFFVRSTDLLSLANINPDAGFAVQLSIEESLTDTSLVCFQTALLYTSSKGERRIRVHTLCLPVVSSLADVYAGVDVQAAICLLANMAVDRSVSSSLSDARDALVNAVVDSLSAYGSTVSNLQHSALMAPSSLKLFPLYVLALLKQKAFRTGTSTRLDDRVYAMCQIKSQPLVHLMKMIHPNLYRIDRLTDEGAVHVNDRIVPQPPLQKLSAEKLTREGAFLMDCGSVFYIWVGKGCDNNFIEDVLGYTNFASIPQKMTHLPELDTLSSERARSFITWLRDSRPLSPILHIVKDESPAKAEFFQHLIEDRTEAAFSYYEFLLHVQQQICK

[3] = target: EGFP-tagged SEC16A (pEGFP-SEC16A) (UniProt O15027)

binding [1]	binding [2]	binding [3]	Substance
no binding	–	–	BMP2K-S, the shorter splicing variant of bone morphogenetic protein 2-inducible kinase (endogenous, K562) (from UniProt Q9NSY1-2 1-662)
binds	no binding	–	BMP2K-L, the longer splicing variant of bone morphogenetic protein 2-inducible kinase (endogenous, K562) (from UniProt Q9NSY1 1-1161)
–	–	binds	BMP2K-S, untagged, ectopically expressed in HEK293 cells (pcDNA3.1-BMP2K-S) (from UniProt Q9NSY1-2 1-662)
